At least one structure is not confirmed: it was looked up by name or label, or the drawing left a doubt.
Assay: Stability in excess of methanol with normal phase HLPC/HPLC
Assay type: physicochemical
Experimental: The flow was maintained at 1 ml/min, and a KRATOS variable UVdetector at 265 nm was used. Two separate experiments were conducted under the above conditions in which the stability of (1E) was [drawing 16] monitored in excess of methanol.
The above two experiments indicate that (1E) is consumed at the same rate as the thiol tetrazole (D) is produced. The thiol tetrazole (D) is exclusively produced from the degradation of the thiocarbamate with methanol. In other words (1E) reacts with methanol to give thiol tetrazole (D) and most probably N-n-butyl, methylcarbamate which cannot be detected under the above conditions.

CCCCNC(=O)Sc1nnnn1-c1ccccc1 [Compound 1E, N-butyl, 1-phenyl-1H-tetrazole-5-thiocarbamate]
pseudofirst order rate constant, appearance of thiol (D) (appearance of 1-phenyl-1H-tetrazole-5-thiol (D) monitored): 0.00171 h⁻¹ | pseudofirst order rate constant, disappearance of (1E) (disappearance of (1E) monitored): 0.00165 h⁻¹

Source: US5539123A, “Low molecular weight thiocarbamates as inhibitors of elastase, uses and method of synthesis” (University of Kentucky Research Foundation, priority 1994, dated 1996)
